# Reference: patent publication US20070190528A1
# By UniProt entry, the sequences of proteins in these tests, tags left out.
# UniProt P09382: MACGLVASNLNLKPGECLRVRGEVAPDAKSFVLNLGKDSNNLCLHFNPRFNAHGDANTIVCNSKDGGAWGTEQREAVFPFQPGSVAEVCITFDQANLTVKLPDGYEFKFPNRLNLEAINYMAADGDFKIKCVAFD
# No constants are given. Whether binding was seen depends on the method and setting. For some of these results: In cells and extracts the contact can be indirect. Some results given as binding are weak or reduced against the parent protein; the word gives no strength. For some of these results: Sequences can lack the tags named with a protein.
# T1: Recombinant LTA (pET29 system, E. coli) (UniProt P01374)
# T1 sequence (looked up): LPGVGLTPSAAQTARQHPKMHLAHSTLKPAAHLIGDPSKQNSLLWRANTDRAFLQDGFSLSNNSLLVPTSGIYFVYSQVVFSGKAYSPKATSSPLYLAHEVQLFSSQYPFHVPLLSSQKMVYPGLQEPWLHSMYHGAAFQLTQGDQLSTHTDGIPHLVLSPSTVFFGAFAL
# T2: LTA (lymphotoxin-alpha) as used for E. coli two-hybrid screening (UniProt P01374)
# T2 sequence (looked up): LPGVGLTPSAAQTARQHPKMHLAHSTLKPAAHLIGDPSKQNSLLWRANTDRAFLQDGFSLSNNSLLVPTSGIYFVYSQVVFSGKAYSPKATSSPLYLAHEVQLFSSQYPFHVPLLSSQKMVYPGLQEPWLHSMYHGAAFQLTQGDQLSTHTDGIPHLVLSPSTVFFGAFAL
# T3: FLAG-tagged LTA Asn26 (pFLAG-CMV-5a vector, expressed in COS7 cells) (UniProt P01374)
# T3 sequence (looked up): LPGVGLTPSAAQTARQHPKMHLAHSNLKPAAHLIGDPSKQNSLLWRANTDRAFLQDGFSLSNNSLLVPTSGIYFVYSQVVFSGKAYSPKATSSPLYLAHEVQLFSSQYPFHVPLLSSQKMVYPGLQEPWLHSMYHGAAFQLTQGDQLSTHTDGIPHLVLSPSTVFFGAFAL
# Tests used:
# [1] = biological target: T1, Recombinant LTA (pET29 system, E. coli); assay: pull-down of purified proteins with anti-LTA antibody sepharose, Western blot with anti-T7
# [2] = biological target: T1, Recombinant LTA (pET29 system, E. coli); assay: summary of the immunoprecipitation experiments
# [3] = biological target: T2, LTA (lymphotoxin-alpha) as used for E. coli two-hybrid screening; assay: E. coli two-hybrid screening
# [4] = biological target: T1, Recombinant LTA (pET29 system, E. coli); assay: pull-down of purified proteins with anti-LTA antibody sepharose, Western blot with anti-T7 tag
# [5] = biological target: T3, FLAG-tagged LTA Asn26 (pFLAG-CMV-5a vector, expressed in COS7 cells); assay: coimmunoprecipitation from COS7 lysate with anti-LTA antibody and protein A sepharose, Western blot with anti-Myc (lane 5)
# [6] = biological target: T3, FLAG-tagged LTA Asn26 (pFLAG-CMV-5a vector, expressed in COS7 cells); assay: coimmunoprecipitation from COS7 lysate with anti-LTA antibody
molecule,measurement,setting,value
Recombinant galectin-1 (T7-tagged at the N-terminus) (from UniProt P09382 1-135),binding,[1],binds
same,binding,[2],binds
galectin-1 (clone from the two-hybrid library derived from blood vessel smooth muscle cells) (from UniProt P09382 1-135),binding,[3],binds
"Recombinant galectin-2 (full-length, pET 28, E. coli; detected by anti-T7 tag antibody) (protein, UniProt P05162 1-132, looked up, not shown: small tags and cut ends) MTGELEVKNMDMKPGSTLKITGSIADGTDGFVINLGQGTDKLNLHFNPRFSESTIVCNSLDGSNWGQEQREDHLCFSPGSEVKFTVTFESDKFKVKLPDGHELTFPNRLGHSHLSYLSVRGGFNMSSFKLKE",binding,[2],binds
same,binding,[4],binds
"Myc-tagged galectin-2 (pCMV-Myc vector, expressed in COS7 cells) (protein, UniProt P05162 1-132, looked up, not shown: small tags and cut ends) MTGELEVKNMDMKPGSTLKITGSIADGTDGFVINLGQGTDKLNLHFNPRFSESTIVCNSLDGSNWGQEQREDHLCFSPGSEVKFTVTFESDKFKVKLPDGHELTFPNRLGHSHLSYLSVRGGFNMSSFKLKE",binding,[5],binds
same,binding,[6],binds
